Library screen at single concentrations

Data taken from ChEMBL document CHEMBL3988442, “University of Dundee, Small-Polar-MMV Screening Library” (2021).

T. brucei: 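Whole-parasite assay of Trypanosoma brucei over 72 hours; the read-out is not stated. Concentration: 30 µM. Higher reads as stronger inhibition (inferred: compounds with an IC50 in retests scored well above the rest). Values scatter widely below zero; nearly all retest evidence comes from the higher of the two concentrations used. About 64,000 compounds were tested under these conditions; 1.5% (about 940) showed 50% or more at least once.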
Leishmania in macrophages: 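Cell assay of Leishmania donovani living inside macrophages; the read-out is not stated. Compounds at 30 µM. Higher reads as stronger inhibition (inferred: compounds with an IC50 in retests scored well above the rest). About 69,000 compounds were tested under these conditions; 1.5% (about 1,000) showed 50% or more at least once.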
Toxoplasma: 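Assay of Toxoplasma gondii numbers, read through their beta-galactosidase reporter with a colour substrate. Tested at 10 µM. Higher reads as fewer parasites (inferred from which compounds were picked for retests). Of about 67,000 compounds tested this way, about 260 (0.38%) reached 50% or more in at least one test.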

The filed quantity is “Percent Effect” (%). The controls that fix the scale are not given in the record; negative values are as filed. This is an unselected part of the compounds tested. Two or more numbers in one place are separate tests of the same structure; such repeats can differ widely.

* Cn1cnnc1C1CCN(c2nc3ccccc3o2)CC1 : T. brucei: -49.68%; Leishmania in macrophages: 12.65%; Toxoplasma: -45.66%
* CCN(C)c1ncnc2c1CCN(C(=O)Cc1ccccn1)CC2.O=C(O)C(F)(F)F : T. brucei: -43.42%; Leishmania in macrophages: 12.58%; Toxoplasma: 11.6%
* N[C@H]1CN(C(=O)CCc2ccccn2)C[C@@H]1c1ccccc1 : T. brucei: -23.81%; Leishmania in macrophages: -8.465%; Toxoplasma: -5.621%
* Cc1nc(CN(C)C2CCN(Cc3ccc(C(N)=O)cc3)C2)no1 (stereo not given) : Leishmania in macrophages: 31.74%; Toxoplasma: 1.354%
* CCOCCS(=O)(=O)c1nnc(NCCOC)s1 : T. brucei: -34.63%; Leishmania in macrophages: -6.072%; Toxoplasma: 2.801%
* NS(=O)(=O)c1cc(C(=O)N2CCCC(n3ccnc3)C2)cs1 (stereo not given) : Leishmania in macrophages: -1.78%; Toxoplasma: 9.516%
* CC(=O)N1CCCC1c1nnn2cc(-c3ccncc3)ccc12.O=C(O)C(F)(F)F (stereo not given) : T. brucei: -62.93%; Leishmania in macrophages: 9.579% & 17.32%; Toxoplasma: -1.919%
* CNC(=O)C1(Cc2cc(C(C)C)no2)CCN(Cc2ccccn2)C1 (stereo not given) : T. brucei: -13.87%; Leishmania in macrophages: -37.46%; Toxoplasma: -6.687%
* Cc1ccc(C(=O)NCCCS(C)(=O)=O)c(=O)[nH]1 : T. brucei: -17.37%; Leishmania in macrophages: -8.24%; Toxoplasma: 0.05774%
* Cc1ccc(CN2CCC(c3cnccn3)CC2)s1 : T. brucei: 17.12%; Leishmania in macrophages: 12.08%; Toxoplasma: 10.23%
* O=C(c1ccoc1)N(Cc1ccccn1)C1CC1 : T. brucei: 1.373%; Leishmania in macrophages: -9.366%; Toxoplasma: -0.9434%
* CNC(=O)CN1CCCC12CCN(C(=O)c1ccoc1)CC2.O=C(O)C(F)(F)F : T. brucei: 1.453%; Leishmania in macrophages: 25.93%; Toxoplasma: -18.31%
* COc1ccc2c(c1)CCCN2C(=O)CNCC1CN(C)CCO1 (stereo not given) : T. brucei: -53.54%; Leishmania in macrophages: 6.533%; Toxoplasma: -4.503%
* COc1ncccc1C(=O)N1CCC(c2nc3c(C)cccc3[nH]2)CC1 : T. brucei: -19.05%; Leishmania in macrophages: -25.37%; Toxoplasma: -5.353%
* O=C(O)C(F)(F)F.[H][C@@]12CCN(c3ccc(C)nn3)[C@]1([H])CC[C@H](C(=O)N1CCCCO1)O2 : T. brucei: -38.73%; Leishmania in macrophages: 4.404%; Toxoplasma: 1.566%
* CN1CCCC(CNC(=O)N(C)Cc2ccc(Cl)c(F)c2)C1 (stereo not given) : T. brucei: -58.72%; Leishmania in macrophages: 13.88%; Toxoplasma: 4.639%
* O=C(O)C(F)(F)F.[H][C@@]12CN(C(=O)C3CC=CC3)C[C@]1([H])C(=O)N(Cc1ccncc1)C2 : T. brucei: 3.317%; Leishmania in macrophages: -4.986%; Toxoplasma: 15.26%
* COCCN(CCOC)c1ncccc1I : T. brucei: -54.31%; Leishmania in macrophages: 19.28%; Toxoplasma: 6.62%
* CC(C)NC(=O)N(C)C1CCN(c2ccccc2Cl)C1=O (stereo not given) : T. brucei: -18.05%; Leishmania in macrophages: 22.11%; Toxoplasma: -25.69%
* O=C(c1cccnc1)N1CCC(Oc2cccc(C(F)(F)F)c2)CC1 : T. brucei: 6.021%; Leishmania in macrophages: -4.817%; Toxoplasma: 7.513%
* CCC(Nc1cccc(Oc2ccc(C#N)cc2)c1)C(N)=O (stereo not given) : T. brucei: -17.07%; Leishmania in macrophages: 18.37%; Toxoplasma: 0.2401%
* Cc1n[nH]cc1CNC1(c2ccc(Br)cc2)CC1 : T. brucei: -166.2%; Leishmania in macrophages: 5.744%; Toxoplasma: -11.93%
* CCCNC(=O)CCc1ccnc2ccccc12 : T. brucei: -20.86%; Leishmania in macrophages: 13.99%; Toxoplasma: -0.7901%
* O=C(c1cnccn1)N1CCC(CN2CCOCC2)CC1 : T. brucei: 3.111%; Leishmania in macrophages: 3.76%; Toxoplasma: 17.94%
* O=C(NCCN1CCOCC1)c1n[nH]c(=O)c2ccccc12 : T. brucei: 24.2%; Leishmania in macrophages: 33.09%; Toxoplasma: 0.4235%
* CC(=O)N1CCc2c(nc(N(C)C)nc2N(C)CCO)C1 : T. brucei: -15.52%; Leishmania in macrophages: 20.1%; Toxoplasma: -10.11%
* O=C(O)c1ccc2[nH]cc(CN3CCCC3)c2c1 : T. brucei: -11.66%; Leishmania in macrophages: 28.95%; Toxoplasma: -2.69%
* COc1cccc(N2CCN(Cc3nccn3C(C)C)CC2=O)c1 : T. brucei: 3.583%; Leishmania in macrophages: -27.34%; Toxoplasma: 9.581%

The first 2 entries again:

* Cn1cnnc1C1CCN(c2nc3ccccc3o2)CC1 | T. brucei: -49.68%; Leishmania in macrophages: 12.65%; Toxoplasma: -45.66%
* CCN(C)c1ncnc2c1CCN(C(=O)Cc1ccccn1)CC2.O=C(O)C(F)(F)F | T. brucei: -43.42%; Leishmania in macrophages: 12.58%; Toxoplasma: 11.6%